In publication PMC11289294:
These are yes or no findings as the source states them, for the method shown. In cells and extracts the contact can be indirect. Some entries that bind do so weakly or less than the wild type. For part of these data: Where a sequence is shown, tags or fusion partners need not be part of it.

Amino acid sequences for entries named in this document (tags omitted).
UniProt P19474: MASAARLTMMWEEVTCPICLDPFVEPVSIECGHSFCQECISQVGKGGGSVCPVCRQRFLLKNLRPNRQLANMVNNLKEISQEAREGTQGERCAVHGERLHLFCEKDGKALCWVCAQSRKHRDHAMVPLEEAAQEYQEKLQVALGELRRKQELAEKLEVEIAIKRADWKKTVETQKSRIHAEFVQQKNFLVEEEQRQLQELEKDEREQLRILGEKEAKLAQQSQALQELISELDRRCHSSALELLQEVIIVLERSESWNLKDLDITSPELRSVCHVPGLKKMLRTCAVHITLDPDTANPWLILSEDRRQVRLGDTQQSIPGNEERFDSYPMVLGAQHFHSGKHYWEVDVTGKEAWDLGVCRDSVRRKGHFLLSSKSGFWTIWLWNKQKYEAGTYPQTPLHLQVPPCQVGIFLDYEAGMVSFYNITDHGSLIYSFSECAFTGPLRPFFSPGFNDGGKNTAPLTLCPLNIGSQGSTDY

What was measured:
[1] = target: T1, CCT2-Flag (chaperonin-containing TCP1 subunit 2), expressed in HEK293T cells (human) (UniProt P78371); test: co-IP; HEK293T cells transfected with CCT2-Flag and Trim21-HA (or their truncation mutants); IP with anti-Flag or anti-HA antibodies, protein A/G plus agarose, 4 °C overnight
T1 sequence: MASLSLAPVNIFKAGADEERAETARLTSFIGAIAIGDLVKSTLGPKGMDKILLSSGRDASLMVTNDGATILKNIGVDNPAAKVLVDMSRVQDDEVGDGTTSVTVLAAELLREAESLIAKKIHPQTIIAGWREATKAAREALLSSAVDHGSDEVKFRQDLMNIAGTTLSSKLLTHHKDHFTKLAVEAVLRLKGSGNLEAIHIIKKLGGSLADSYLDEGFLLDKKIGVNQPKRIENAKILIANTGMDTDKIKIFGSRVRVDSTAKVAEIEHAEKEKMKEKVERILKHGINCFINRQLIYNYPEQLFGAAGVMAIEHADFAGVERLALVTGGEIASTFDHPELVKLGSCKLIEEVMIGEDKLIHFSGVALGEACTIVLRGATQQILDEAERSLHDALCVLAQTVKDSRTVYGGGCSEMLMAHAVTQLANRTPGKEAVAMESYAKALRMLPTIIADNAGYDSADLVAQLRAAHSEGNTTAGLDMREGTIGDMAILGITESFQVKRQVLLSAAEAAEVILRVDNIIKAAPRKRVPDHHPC

[2] = target: T2, CCT2, endogenous in human breast cancer cells (human (endogenous in MDA-MB-231 and MDA-MB-468)) (UniProt P78371); test: co-IP; endogenous CCT2 and Trim21 in lysates of MDA-MB-231, MDA-MB-468 and 4T1 cells; protein A/G plus agarose, 4 °C overnight, IgG as control
T2 sequence: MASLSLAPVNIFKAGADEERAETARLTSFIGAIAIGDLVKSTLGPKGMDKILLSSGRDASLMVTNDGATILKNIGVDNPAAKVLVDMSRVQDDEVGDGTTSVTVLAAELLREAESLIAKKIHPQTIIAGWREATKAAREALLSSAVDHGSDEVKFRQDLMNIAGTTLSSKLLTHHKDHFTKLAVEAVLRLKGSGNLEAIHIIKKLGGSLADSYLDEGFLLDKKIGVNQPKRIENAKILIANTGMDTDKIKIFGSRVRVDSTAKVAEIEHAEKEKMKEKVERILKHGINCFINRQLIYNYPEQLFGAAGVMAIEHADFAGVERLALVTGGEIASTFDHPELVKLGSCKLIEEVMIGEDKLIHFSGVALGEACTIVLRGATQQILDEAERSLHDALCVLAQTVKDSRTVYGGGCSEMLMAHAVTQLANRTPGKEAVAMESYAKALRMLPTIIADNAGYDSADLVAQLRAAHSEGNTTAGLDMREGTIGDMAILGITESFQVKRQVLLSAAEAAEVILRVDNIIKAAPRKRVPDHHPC

[3] = target: T3, CCT2, endogenous in mouse 4T1 breast cancer cells (mouse (endogenous in 4T1)) (UniProt P80314); test: as above
T3 sequence: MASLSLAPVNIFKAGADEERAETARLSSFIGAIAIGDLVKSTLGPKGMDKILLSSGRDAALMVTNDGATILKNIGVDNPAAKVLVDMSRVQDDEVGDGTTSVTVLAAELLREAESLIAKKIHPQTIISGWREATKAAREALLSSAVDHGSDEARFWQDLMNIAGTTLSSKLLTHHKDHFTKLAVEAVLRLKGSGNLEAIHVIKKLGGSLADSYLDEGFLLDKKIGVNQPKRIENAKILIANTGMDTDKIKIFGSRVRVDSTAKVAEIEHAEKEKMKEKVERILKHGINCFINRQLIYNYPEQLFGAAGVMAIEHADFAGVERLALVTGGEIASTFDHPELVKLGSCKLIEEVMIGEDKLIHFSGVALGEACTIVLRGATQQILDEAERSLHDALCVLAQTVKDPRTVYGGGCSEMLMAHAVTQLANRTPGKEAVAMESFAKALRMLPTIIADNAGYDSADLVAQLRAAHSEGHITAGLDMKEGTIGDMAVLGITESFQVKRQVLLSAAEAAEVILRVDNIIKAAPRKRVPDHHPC

Trim21-HA, expressed in HEK293T cells (from UniProt P19474 1-475)
binding [1]: binds

Trim21 (ubiquitin E3 ligase), endogenous in human breast cancer cells (from UniProt P19474 1-475)
binding [2]: binds

B1: Trim21, endogenous in mouse 4T1 breast cancer cells (protein, UniProt Q62191 1-470)
chain: MSPSTTSKMSLEKMWEEVTCSICLDPMVEPMSIECGHCFCKECIFEVGKNGGSSCPECRQQFLLRNLRPNRHIANMVENLKQIAQNTKKSTQETHCMKHGEKLHLFCEEDGQALCWVCAQSGKHRDHTRVPIEEAAKVYQEKIHVVLEKLRKGKELAEKMEMDLTMQRTDWKRNIDTQKSRIHAEFALQNSLLAQEEQRQLQRLEKDQREYLRLLGKKEAELAEKNQALQELISELERRIRGSELELLQEVRIILERSGSWNLDTLDIDAPDLTSTCPVPGRKKMLRTCWVHITLDRNTANSWLIISKDRRQVRMGDTHQNVSDNKERFSNYPMVLGAQRFSSGKMYWEVDVTQKEAWDLGVCRDSVQRKGQFSLSPENGFWTIWLWQDSYEAGTSPQTTLHIQVPPCQIGIFVDYEAGVVSFYNITDHGSLIYTFSECVFAGPLRPFFNVGFNYSGGNAAPLKLCPLKM
binding [3]: binds
